# Measurements as given in the supplement of paper PMC8728848.
# This is one part of the list.
# B1: SynCAM (Mus musculus) (protein)
# chain: MASAVLPSGSQCAAAAAVAAAAAPPGLRLRLLLLLLSAAALIPTGDGQNLFTKDVTVIEGEVATISCQVNKSDDSVIQLLNPNRQTIYFRDFRPLKDSRFQLLNFSSSELKVSLTNVSISDEGRYFCQLYTDPPQESYTTITVLVPPRNLMIDIQKDTAVEGEEIEVNCTAMASKPATTIRWFKGNKELKGKSEVEEWSDMYTVTSQLMLKVHKEDDGVPVICQVEHPAVTGNLQTQRYLEVQYKPQVHIQMTYPLQGLTREGDAFELTCEAIGKPQPVMVTWVRVDDEMPQHAVLSGPNLFINNLNKTDNGTYRCEASNIVGKAHSDYMLYVYDPPTTIPPP
# How the values were obtained:
# Assay in all cases: glycan array binding signal (z-score within array); higher = stronger binding
# Conditions in all cases: glycan notation: IUPAC condensed, linker removed
# [1] = molecular target: Fuc(a1-2)Gal
# Summary of the method: (§1)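 Glycan array data were curated from 3228 arrays in the Consortium for Functional Glycomics database and kept only where the protein sequence was available. Glycan names were converted to IUPAC-condensed notation, and columns mapping to the same glycan were averaged. The binding signal is a within-array Z-score, averaged across arrays of the same protein sequence at different concentrations or buffers and across linkers. Negative Z-scores can be read as non-binding.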
# [2] = molecular target: Fuc(a1-2)Gal(b1-3)GalNAc
# Summary of the method: as §1
# [3] = molecular target: Fuc(a1-2)Gal(b1-3)GalNAc(a1-3)[Fuc(a1-2)]Gal(b1-4)Glc
# Summary of the method: as §1
# [4] = molecular target: Fuc(a1-2)Gal(b1-3)GalNAc(a1-3)[Fuc(a1-2)]Gal(b1-4)GlcNAc
# Summary of the method: as §1
# [5] = molecular target: Fuc(a1-2)Gal(b1-3)GalNAc(b1-3)Gal
# Summary of the method: as §1
# [6] = molecular target: Fuc(a1-2)Gal(b1-3)GalNAc(b1-3)Gal(a1-4)Gal(b1-4)Glc
# Summary of the method: as §1
# [7] = molecular target: Fuc(a1-2)Gal(b1-3)GalNAc(b1-4)[Neu5Ac(a2-3)]Gal(b1-4)Glc
# Summary of the method: as §1
# [8] = molecular target: Fuc(a1-2)Gal(b1-3)GlcNAc
# Summary of the method: as §1
# [9] = molecular target: Fuc(a1-2)Gal(b1-3)GlcNAc(b1-2)Man(a1-3)[Fuc(a1-2)Gal(b1-3)GlcNAc(b1-2)Man(a1-6)]Man(b1-4)GlcNAc(b1-4)GlcNAc
# Summary of the method: as §1
# [10] = molecular target: Fuc(a1-2)Gal(b1-3)GlcNAc(b1-2)Man(a1-3)[Fuc(a1-2)Gal(b1-3)GlcNAc(b1-2)Man(a1-6)]Man(b1-4)GlcNAc(b1-4)[Fuc(a1-6)]GlcNAc
# Summary of the method: as §1
# [11] = molecular target: Fuc(a1-2)Gal(b1-3)GlcNAc(b1-3)Gal(b1-4)Glc
# Summary of the method: as §1
# [12] = molecular target: Fuc(a1-2)Gal(b1-3)GlcNAc(b1-3)GalNAc
# Summary of the method: as §1
# [13] = molecular target: Fuc(a1-2)Gal(b1-3)GlcNAc(b1-3)[Fuc(a1-2)Gal(b1-3)GlcNAc(b1-6)]GalNAc
# Summary of the method: as §1
# [14] = molecular target: Fuc(a1-2)Gal(b1-3)GlcNAc(b1-3)[Gal(b1-4)GlcNAc(b1-6)]Gal(b1-4)Glc
# Summary of the method: as §1
# [15] = molecular target: Fuc(a1-2)Gal(b1-3)GlcNAc(b1-3)[Neu5Ac(a2-6)Gal(b1-4)GlcNAc(b1-6)]Gal(b1-4)Glc
# Summary of the method: as §1
# [16] = molecular target: Fuc(a1-2)Gal(b1-3)GlcNAc6S
# Summary of the method: as §1
# [17] = molecular target: Fuc(a1-2)Gal(b1-3)[Fuc(a1-4)]GlcNAc
# Summary of the method: as §1
# [18] = molecular target: Fuc(a1-2)Gal(b1-3)[Fuc(a1-4)]GlcNAc(b1-2)Man(a1-3)[Fuc(a1-2)Gal(b1-3)[Fuc(a1-4)]GlcNAc(b1-2)Man(a1-3)]Man(b1-4)GlcNAc(b1-4)GlcNAc
# Summary of the method: as §1
# [19] = molecular target: Fuc(a1-2)Gal(b1-3)[Fuc(a1-4)]GlcNAc(b1-2)Man(a1-3)[Fuc(a1-2)Gal(b1-3)[Fuc(a1-4)]GlcNAc(b1-2)Man(a1-6)]Man(b1-4)GlcNAc(b1-4)[Fuc(a1-6)]GlcNAc(b1-4)[Fuc(a1-6)]GlcNAc
# Summary of the method: as §1
# [20] = molecular target: Fuc(a1-2)Gal(b1-3)[Fuc(a1-4)]GlcNAc(b1-3)[Fuc(a1-3)[Gal(b1-4)]GlcNAc(b1-6)]Gal(b1-4)Glc
# Summary of the method: as §1
# [21] = molecular target: Fuc(a1-2)Gal(b1-3)[Fuc(a1-4)]GlcNAc(b1-3)[Gal(b1-4)GlcNAc(b1-6)]Gal(b1-4)Glc
# Summary of the method: as §1
# [22] = molecular target: Fuc(a1-2)Gal(b1-4)Glc
# Summary of the method: as §1
# [23] = molecular target: Fuc(a1-2)Gal(b1-4)Glc6S
# Summary of the method: as §1
# [24] = molecular target: Fuc(a1-2)Gal(b1-4)GlcNAc
# Summary of the method: as §1
# [25] = molecular target: Fuc(a1-2)Gal(b1-4)GlcNAc(b1-2)Man
# Summary of the method: as §1
# [26] = molecular target: Fuc(a1-2)Gal(b1-4)GlcNAc(b1-2)Man(a1-3)[Fuc(a1-2)Gal(b1-4)GlcNAc(b1-2)Man(a1-6)]Man(b1-4)GlcNAc(b1-4)GlcNAc
# Summary of the method: as §1
# [27] = molecular target: Fuc(a1-2)Gal(b1-4)GlcNAc(b1-2)Man(a1-3)[Fuc(a1-2)Gal(b1-4)GlcNAc(b1-2)Man(a1-6)]Man(b1-4)GlcNAc(b1-4)[Fuc(a1-6)]GlcNAc
# Summary of the method: as §1
# [28] = molecular target: Fuc(a1-2)Gal(b1-4)GlcNAc(b1-2)[Fuc(a1-2)Gal(b1-4)GlcNAc(b1-4)]Man(a1-3)[Fuc(a1-2)Gal(b1-4)GlcNAc(b1-2)Man(a1-6)]Man(b1-4)GlcNAc(b1-4)GlcNAc
# Summary of the method: as §1
# [29] = molecular target: Fuc(a1-2)Gal(b1-4)GlcNAc(b1-3)Gal(b1-4)GlcNAc
# Summary of the method: as §1
# [30] = molecular target: Fuc(a1-2)Gal(b1-4)GlcNAc(b1-3)Gal(b1-4)GlcNAc(b1-2)Man(a1-3)[Fuc(a1-2)Gal(b1-4)GlcNAc(b1-3)Gal(b1-4)GlcNAc(b1-2)Man(a1-6)]Man(b1-4)GlcNAc(b1-4)GlcNAc
# Summary of the method: as §1
# [31] = molecular target: Fuc(a1-2)Gal(b1-4)GlcNAc(b1-3)Gal(b1-4)GlcNAc(b1-3)Gal(b1-4)GlcNAc
# Summary of the method: as §1
# [32] = molecular target: Fuc(a1-2)Gal(b1-4)GlcNAc(b1-3)GalNAc
# Summary of the method: as §1
# [33] = molecular target: Fuc(a1-2)Gal(b1-4)GlcNAc(b1-3)[Fuc(a1-2)Gal(b1-4)GlcNAc(b1-6)]GalNAc
# Summary of the method: as §1
# [34] = molecular target: Fuc(a1-2)Gal(b1-4)GlcNAc(b1-3)[Fuc(a1-3)[Gal(b1-4)]GlcNAc(b1-6)]Gal(b1-4)Glc
# Summary of the method: as §1
# [35] = molecular target: Fuc(a1-2)Gal(b1-4)GlcNAc(b1-6)GalNAc
# Summary of the method: as §1
# [36] = molecular target: Fuc(a1-2)Gal(b1-4)GlcNAc6S
# Summary of the method: as §1
# [37] = molecular target: Fuc(a1-2)Gal(b1-4)[Fuc(a1-3)]GlcNAc
# Summary of the method: as §1
binder,measurement,setting,value
B1,glycan array binding signal (z-score),[1],-0.509
same,glycan array binding signal (z-score),[2],-0.21
same,glycan array binding signal (z-score),[3],-0.767
same,glycan array binding signal (z-score),[4],2.15
same,glycan array binding signal (z-score),[5],0.178
same,glycan array binding signal (z-score),[6],-0.683
same,glycan array binding signal (z-score),[7],-0.661
same,glycan array binding signal (z-score),[8],0.326
same,glycan array binding signal (z-score),[9],-0.104
same,glycan array binding signal (z-score),[10],1.96
same,glycan array binding signal (z-score),[11],-0.729
same,glycan array binding signal (z-score),[12],0.316
same,glycan array binding signal (z-score),[13],-0.296
same,glycan array binding signal (z-score),[14],-0.622
same,glycan array binding signal (z-score),[15],0.679
same,glycan array binding signal (z-score),[16],2.22
same,glycan array binding signal (z-score),[17],0.054
same,glycan array binding signal (z-score),[18],1.84
same,glycan array binding signal (z-score),[19],-0.316
same,glycan array binding signal (z-score),[20],-0.545
same,glycan array binding signal (z-score),[21],0.218
same,glycan array binding signal (z-score),[22],-0.425
same,glycan array binding signal (z-score),[23],0.624
same,glycan array binding signal (z-score),[24],0.404
same,glycan array binding signal (z-score),[25],-0.179
same,glycan array binding signal (z-score),[26],-0.471
same,glycan array binding signal (z-score),[27],1.14
same,glycan array binding signal (z-score),[28],1.31
same,glycan array binding signal (z-score),[29],-0.175
same,glycan array binding signal (z-score),[30],0.696
same,glycan array binding signal (z-score),[31],-0.382
same,glycan array binding signal (z-score),[32],0.291
same,glycan array binding signal (z-score),[33],-0.917
same,glycan array binding signal (z-score),[34],-0.893
same,glycan array binding signal (z-score),[35],-0.076
same,glycan array binding signal (z-score),[36],-0.055
same,glycan array binding signal (z-score),[37],0.57

# Given with bars between the fields: entries from further up.
binder | measurement | setting | value
B1 | glycan array binding signal (z-score) | [8] | 0.326
same | glycan array binding signal (z-score) | [17] | 0.054
